Data: paper PMC13485621
No constants are given. Whether binding was seen depends on the method and setting. Some entries that bind do so weakly or less than the wild type. Sequences can lack the tags named with a protein.

Target: T1, mCitrine-tagged GIPR C-tail, wild type (human) (UniProt P48546)
T1 sequence: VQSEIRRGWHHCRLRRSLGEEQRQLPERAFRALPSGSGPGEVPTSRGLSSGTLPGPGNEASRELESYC
Assay: FRET or BRET; bimolecular FRET in solution; GIPC-mCer 30 nM (donor), mCit-GIPR C-tail 300 nM (WT, pm or pd), with or without β-arr2 300 nM; 20 mM HEPES pH 7.4, 25 mM KCl, 5 mM MgCl2; FRET ratio 525 nm/475 nm; both purified

B1: mCerulean-tagged GIPC (protein, UniProt O14908 1-333)
chain: MPLGLGRRKKAPPLVENEEAEPGRGGLGVGEPGPLGGGGSGGPQMGLPPPPPALRPRLVFHTQLAHGSPTGRIEGFTNVKELYGKIAEAFRLPTAEVMFCTLNTHKVDMDKLLGGQIGLEDFIFAHVKGQRKEVEVFKSEDALGLTITDNGAGYAFIKRIKEGSVIDHIHLISVGDMIEAINGQSLLGCRHYEVARLLKELPRGRTFTLKLTEPRKAFDMISQRSAGGRPGSGPQLGTGRGTLRLRSRGPATVEDLPSAFEEKAIEKVDDLLESYMGIRDTELAATMVELGKDKRNPDELAEALDERLGDFAFPDEFVFDVWGAIGDAKVGRY
In the case of B1, the binding is reported as “binds”.
